These are yes or no findings as the source states them, for the method shown. Some results given as binding are weak or reduced against the parent protein; the word gives no strength.

By UniProt entry, the sequences of proteins in these tests, tags left out. Residues count along the entry.
UniProt Q02242, residues 25-167: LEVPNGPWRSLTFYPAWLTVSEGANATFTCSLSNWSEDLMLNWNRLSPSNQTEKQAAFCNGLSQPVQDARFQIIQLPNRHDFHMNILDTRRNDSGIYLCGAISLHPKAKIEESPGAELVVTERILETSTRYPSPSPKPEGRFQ

The target of experiment [1] is recombinant mouse PD-1/Fc (R&D Systems) (mouse) (UniProt Q02242). Briefly: ELISA, plate coated with recombinant mouse PD-1/Fc, OD450 against ug/ml B7-DC-Ig. A general note: ELISA stands for enzyme-linked immunosorbent assay.
Experiment [2] shares this target. Briefly: ELISA, plate coated with recombinant mouse PD-1/Fc, detection with biotin anti-mouse B7-DC clone 112.

B1: murine B7-DC-Ig (wild type) (Fc fusion)
chain: LFTVTAPKEVYTVDVGSSVSLECDFDRRECTELEGIRASLQKVENDTSLQSERATLLEEQLPLGKALFHIPSVQVRDSGQYRCLVICGAAWDYKYLTVKVKASYMRIDTRILEVPGTGEVQLTCQARGYPLAEVSWQNVSVPANTSHIRTPEGLYQVTSVLRLKPQPSRNFSCMFWNAHMKELTSAIIDPLSRMEPKVPRTWEPRGPTIKPCPPCKCPAPNLLGGPSVFIFPPKIKDVLMISLSPIVTCVVVDVSEDDPDVQISWFVNNVEVHTAQTQTHREDYNSTLRVVSALPIQHQDWMSGKEFKCKVNNKDLPAPIERTISKPKGSVRAPQVYVLPPPEEEMTKKQVTLTCMVTDFMPEDIYVEWTNNGKTELNYKNTEPVLDSDGSYFMYSKLRVEKKNWVERNSYSCSVVHEGLHNHHTTKSFSRTPGK
modifications: Homodimer through the IgG2a hinge; one chain given.
In the case of B1, the binding entry in experiment [1] and in experiment [2] was “binds” in each case.

The values are drawn from patent US20110195068A1, “PD-1 ANTAGONISTS AND METHODS OF USE THEREOF” (priority 2008, published 2011).
